The supplement of paper PMC10849652
The other results are listed elsewhere or left out.

Sequences of proteins named here, by UniProt entry; tags and fusion partners are left off. A change or cut given only in a name is not applied to a line headed by its entry.
UniProt Q9BWD3: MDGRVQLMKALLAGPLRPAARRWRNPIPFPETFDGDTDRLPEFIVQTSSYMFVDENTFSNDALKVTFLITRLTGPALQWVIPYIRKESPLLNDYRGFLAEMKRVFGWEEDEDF
UniProt Q9BUV0: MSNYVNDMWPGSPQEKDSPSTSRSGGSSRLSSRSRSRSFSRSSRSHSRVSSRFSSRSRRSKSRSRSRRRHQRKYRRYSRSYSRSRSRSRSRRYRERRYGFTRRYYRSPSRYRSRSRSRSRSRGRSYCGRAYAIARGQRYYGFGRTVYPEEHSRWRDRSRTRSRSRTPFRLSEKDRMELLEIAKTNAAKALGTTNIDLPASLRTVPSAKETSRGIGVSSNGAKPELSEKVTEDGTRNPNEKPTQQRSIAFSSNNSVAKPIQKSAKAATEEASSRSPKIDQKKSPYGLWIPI
UniProt O95059: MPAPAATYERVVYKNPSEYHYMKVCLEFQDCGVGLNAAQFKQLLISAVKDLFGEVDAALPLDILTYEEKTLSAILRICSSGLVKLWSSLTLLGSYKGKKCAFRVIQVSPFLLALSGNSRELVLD
UniProt Q9UIY3: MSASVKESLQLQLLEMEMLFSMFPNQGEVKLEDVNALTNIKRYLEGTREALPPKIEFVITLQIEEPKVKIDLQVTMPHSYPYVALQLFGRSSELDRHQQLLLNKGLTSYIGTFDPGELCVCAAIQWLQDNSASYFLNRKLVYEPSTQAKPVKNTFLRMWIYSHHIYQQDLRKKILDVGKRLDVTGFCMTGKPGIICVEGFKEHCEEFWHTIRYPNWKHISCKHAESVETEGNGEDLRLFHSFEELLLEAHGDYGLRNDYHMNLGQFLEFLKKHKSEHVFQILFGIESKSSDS
UniProt Q7L3V2: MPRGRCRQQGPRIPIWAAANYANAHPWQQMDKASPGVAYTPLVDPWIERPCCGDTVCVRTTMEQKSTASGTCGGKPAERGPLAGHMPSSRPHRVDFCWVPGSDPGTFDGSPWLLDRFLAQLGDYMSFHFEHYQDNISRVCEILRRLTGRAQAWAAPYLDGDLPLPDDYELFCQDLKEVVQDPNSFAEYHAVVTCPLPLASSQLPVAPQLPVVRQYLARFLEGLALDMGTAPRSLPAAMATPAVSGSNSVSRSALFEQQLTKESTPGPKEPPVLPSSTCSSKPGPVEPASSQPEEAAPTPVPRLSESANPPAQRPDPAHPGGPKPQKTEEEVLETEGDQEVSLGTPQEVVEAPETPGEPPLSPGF
UniProt Q86WX3: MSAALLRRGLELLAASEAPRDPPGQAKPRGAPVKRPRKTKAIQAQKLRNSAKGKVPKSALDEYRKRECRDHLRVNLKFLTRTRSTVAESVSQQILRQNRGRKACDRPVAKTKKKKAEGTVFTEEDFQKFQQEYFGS
UniProt Q9Y3A4: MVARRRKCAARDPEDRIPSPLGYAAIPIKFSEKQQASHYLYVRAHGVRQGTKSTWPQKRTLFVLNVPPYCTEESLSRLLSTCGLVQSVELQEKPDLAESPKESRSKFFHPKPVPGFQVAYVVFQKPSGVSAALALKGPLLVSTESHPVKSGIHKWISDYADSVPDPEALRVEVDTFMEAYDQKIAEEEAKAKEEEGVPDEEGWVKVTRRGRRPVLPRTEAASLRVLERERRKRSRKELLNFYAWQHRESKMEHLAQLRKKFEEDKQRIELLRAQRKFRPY
UniProt Q9P2E9: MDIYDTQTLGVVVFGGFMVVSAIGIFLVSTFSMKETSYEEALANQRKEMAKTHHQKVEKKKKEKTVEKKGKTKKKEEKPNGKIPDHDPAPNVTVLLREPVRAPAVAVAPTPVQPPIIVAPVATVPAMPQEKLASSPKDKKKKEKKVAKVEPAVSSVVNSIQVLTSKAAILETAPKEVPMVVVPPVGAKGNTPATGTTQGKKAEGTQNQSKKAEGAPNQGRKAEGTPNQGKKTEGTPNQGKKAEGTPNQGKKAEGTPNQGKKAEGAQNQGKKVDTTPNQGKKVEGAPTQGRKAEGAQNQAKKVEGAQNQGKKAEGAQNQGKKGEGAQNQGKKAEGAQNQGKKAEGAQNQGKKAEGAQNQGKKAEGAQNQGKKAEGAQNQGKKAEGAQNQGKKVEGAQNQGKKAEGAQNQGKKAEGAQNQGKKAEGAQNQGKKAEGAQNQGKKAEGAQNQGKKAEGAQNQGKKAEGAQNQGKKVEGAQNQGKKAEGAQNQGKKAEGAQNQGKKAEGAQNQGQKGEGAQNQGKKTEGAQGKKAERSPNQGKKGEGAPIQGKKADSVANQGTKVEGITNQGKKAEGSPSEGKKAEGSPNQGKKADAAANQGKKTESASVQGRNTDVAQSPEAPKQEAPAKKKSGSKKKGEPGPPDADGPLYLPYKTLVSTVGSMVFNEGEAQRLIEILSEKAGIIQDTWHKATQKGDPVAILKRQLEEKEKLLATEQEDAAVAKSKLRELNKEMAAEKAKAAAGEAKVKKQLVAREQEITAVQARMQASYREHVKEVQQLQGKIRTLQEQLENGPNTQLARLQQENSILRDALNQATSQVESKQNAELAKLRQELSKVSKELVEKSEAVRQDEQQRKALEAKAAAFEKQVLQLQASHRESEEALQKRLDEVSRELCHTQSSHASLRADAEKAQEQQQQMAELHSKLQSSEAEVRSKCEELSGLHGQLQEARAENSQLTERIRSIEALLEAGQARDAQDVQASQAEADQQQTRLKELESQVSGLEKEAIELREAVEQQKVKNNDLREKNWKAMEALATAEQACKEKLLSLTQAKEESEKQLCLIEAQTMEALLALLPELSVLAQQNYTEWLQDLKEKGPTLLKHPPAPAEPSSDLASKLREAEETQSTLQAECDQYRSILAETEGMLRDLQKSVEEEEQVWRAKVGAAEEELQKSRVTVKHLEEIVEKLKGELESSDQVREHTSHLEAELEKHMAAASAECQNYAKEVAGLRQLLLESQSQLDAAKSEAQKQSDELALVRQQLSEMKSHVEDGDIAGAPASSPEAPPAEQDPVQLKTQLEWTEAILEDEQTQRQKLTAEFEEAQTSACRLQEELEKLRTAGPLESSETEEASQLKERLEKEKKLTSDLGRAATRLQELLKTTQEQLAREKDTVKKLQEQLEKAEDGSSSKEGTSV
UniProt Q8WXA3: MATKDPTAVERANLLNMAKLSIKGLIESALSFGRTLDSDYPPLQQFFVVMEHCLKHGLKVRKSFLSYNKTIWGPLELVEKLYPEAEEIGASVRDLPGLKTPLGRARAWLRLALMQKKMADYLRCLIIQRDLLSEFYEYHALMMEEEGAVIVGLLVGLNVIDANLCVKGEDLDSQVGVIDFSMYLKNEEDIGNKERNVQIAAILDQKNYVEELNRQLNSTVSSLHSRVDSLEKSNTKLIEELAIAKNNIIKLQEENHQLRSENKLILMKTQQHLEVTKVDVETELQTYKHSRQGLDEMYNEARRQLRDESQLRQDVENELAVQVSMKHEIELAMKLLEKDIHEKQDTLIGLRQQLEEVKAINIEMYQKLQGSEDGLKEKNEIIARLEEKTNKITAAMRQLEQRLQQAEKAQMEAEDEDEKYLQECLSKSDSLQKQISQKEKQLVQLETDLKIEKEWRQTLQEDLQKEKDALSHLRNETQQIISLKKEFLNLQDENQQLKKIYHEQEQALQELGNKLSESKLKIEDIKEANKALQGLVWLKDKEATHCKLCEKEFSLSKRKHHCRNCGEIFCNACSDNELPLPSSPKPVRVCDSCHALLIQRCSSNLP
UniProt Q96CM3: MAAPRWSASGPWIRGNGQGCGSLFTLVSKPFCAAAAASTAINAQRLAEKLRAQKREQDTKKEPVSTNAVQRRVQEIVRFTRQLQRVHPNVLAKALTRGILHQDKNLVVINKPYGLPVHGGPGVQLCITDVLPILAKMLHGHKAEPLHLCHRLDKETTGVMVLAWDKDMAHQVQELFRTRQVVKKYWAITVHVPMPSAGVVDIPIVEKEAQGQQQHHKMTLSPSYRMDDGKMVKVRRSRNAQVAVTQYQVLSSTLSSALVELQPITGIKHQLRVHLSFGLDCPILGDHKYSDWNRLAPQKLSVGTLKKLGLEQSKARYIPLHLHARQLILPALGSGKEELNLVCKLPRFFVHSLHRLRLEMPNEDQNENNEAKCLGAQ
UniProt P29034: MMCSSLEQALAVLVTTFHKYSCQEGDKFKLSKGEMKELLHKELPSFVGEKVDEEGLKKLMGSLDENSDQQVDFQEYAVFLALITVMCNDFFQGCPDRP
UniProt P60903, whole entry, looked up: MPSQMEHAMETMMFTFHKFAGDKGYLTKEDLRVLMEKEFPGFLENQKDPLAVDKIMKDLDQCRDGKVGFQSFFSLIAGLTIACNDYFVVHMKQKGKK
UniProt Q6P087: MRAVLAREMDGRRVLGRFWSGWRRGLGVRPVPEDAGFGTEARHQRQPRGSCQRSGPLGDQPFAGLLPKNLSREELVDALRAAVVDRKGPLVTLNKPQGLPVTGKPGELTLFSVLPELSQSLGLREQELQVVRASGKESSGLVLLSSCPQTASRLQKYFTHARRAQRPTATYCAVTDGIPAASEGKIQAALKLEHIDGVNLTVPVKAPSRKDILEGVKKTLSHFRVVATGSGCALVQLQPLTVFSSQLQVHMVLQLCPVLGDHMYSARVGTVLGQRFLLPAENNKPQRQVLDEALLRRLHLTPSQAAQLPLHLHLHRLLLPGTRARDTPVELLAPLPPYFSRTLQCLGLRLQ
UniProt Q9HCY8: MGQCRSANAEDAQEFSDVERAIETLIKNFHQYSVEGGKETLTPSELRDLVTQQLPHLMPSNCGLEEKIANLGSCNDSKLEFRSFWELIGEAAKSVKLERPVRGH
UniProt Q9HA92: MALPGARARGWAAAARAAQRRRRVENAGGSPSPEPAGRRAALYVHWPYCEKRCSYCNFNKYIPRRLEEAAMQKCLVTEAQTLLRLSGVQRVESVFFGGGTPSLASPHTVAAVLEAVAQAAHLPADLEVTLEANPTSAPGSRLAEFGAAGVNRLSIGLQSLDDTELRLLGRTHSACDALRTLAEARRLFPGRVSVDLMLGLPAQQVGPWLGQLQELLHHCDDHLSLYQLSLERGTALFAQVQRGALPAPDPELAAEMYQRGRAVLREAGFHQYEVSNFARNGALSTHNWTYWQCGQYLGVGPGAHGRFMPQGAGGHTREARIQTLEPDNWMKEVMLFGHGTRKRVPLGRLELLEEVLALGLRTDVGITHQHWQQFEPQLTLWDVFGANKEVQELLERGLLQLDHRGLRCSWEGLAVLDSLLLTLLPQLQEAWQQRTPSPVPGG
UniProt Q8N2Y8: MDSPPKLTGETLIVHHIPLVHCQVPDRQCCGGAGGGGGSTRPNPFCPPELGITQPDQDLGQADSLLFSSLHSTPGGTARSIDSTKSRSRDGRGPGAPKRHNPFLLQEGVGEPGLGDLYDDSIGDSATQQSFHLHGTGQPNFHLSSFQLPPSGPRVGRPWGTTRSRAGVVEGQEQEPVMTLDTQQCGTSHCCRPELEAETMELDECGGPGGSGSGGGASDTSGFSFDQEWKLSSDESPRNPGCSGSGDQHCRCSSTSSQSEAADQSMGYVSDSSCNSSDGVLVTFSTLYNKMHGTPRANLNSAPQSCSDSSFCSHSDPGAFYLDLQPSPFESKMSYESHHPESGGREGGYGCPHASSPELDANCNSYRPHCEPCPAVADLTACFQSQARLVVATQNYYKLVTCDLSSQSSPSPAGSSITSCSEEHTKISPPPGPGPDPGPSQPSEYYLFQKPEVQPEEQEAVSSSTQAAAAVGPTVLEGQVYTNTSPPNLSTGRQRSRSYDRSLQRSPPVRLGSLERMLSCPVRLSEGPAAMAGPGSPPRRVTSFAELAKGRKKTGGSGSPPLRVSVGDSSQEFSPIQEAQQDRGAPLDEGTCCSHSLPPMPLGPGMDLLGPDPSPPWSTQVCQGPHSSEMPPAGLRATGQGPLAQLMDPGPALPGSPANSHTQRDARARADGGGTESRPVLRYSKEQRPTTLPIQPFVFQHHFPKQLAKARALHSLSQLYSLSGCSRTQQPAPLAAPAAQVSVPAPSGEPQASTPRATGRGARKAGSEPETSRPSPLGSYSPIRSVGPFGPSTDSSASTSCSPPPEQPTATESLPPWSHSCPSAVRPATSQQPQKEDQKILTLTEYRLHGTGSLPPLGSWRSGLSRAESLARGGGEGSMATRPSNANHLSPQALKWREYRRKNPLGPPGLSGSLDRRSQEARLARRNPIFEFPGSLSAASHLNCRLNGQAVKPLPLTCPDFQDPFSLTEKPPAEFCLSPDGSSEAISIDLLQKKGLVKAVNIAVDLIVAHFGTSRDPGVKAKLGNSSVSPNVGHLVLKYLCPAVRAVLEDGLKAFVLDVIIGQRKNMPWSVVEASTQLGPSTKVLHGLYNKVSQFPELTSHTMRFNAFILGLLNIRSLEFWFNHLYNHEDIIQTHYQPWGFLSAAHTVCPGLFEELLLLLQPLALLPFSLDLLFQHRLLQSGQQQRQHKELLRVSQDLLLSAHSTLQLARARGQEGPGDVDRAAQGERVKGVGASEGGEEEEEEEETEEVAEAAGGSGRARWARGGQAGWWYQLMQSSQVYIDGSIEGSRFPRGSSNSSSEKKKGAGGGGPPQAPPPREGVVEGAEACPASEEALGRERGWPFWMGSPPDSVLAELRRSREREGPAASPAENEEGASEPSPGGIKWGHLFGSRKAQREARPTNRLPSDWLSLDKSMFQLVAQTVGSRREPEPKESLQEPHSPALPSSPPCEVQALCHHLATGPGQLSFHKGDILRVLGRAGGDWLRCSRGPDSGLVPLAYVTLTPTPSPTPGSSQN

Experiments:
Experiment in all cases: log2 fold change, soluble protein after heating vs DMSO (PISA); higher = thermal stabilisation; K562 lysate, 10 uM; active = over 0.2 and 3.5 SD of the protein, either way, in both replicates (recomputed)
[1] = compound: Cc1nc(Nc2ncc(C(=O)Nc3c(C)cccc3Cl)s2)cc(N2CCN(CCO)CC2)n1 [dasatinib]
Procedure, shortened: (§1)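 K562 pellets were dounce-homogenised in PBS pH 7.4 with 1 mM MgCl2, and the crude extract at 1 mg/mL protein was treated with 10 μM compound for 30 min. Aliquots were heated for 3 min across 48°C-58°C, pooled, and brought to 0.5% NP-40 at 4°C; soluble protein was the supernatant after 21,000xg for 90 min. Soluble protein was quantified by TMTpro 16plex LC-MS/MS with channel sums equalised, and reported as log2 fold change in thermal stability against DMSO controls, with values from duplicates.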

[2] = compound: Cn1cc(-c2ccc3c(c2)CCN3C(=O)Cc2cccc(C(F)(F)F)c2)c2c(N)ncnc21
Procedure, shortened: as §1

[3] = compound: Cn1cc(CNCC2CCN(c3ncc(C(=O)NO)cn3)CC2)c2ccccc21 [quisinostat]
Procedure, shortened: as §1

[4] = compound: NC(=O)Nc1cc(-c2cccc(F)c2)sc1C(=O)N[C@H]1CCCNC1
Procedure, shortened: as §1

[5] = compound: NC(=O)c1cnc(N[C@@H]2CCCC[C@@H]2N)nc1Nc1cccc(-n2nccn2)c1
Procedure, shortened: as §1

[6] = compound: NC1(c2ccc(-c3nc4ccn5c(=O)[nH]nc5c4cc3-c3ccccc3)cc2)CCC1
Procedure, shortened: as §1

[7] = compound: Cc1cn(-c2cc(NC(=O)c3ccc(C)c(Nc4nccc(-c5cccnc5)n4)c3)cc(C(F)(F)F)c2)cn1 [nilotinib]
Procedure, shortened: as §1

[8] = compound: Cc1nc(Nc2n[nH]c3c2CN(C(=O)N[C@H](CN(C)C)c2ccccc2)C3(C)C)c2sccc2n1
Procedure, shortened: as §1

[9] = compound: Cc1ncc(-c2ccnc(Nc3ccc(S(C)(=O)=O)cc3)n2)n1C(C)C
Procedure, shortened: as §1

[10] = compound: Cn1cncc1[C@@](N)(c1ccc(Cl)cc1)c1ccc2c(c1)c(-c1cccc(Cl)c1)cc(=O)n2C [tipifarnib]
Procedure, shortened: as §1

Target | log2 fold change [1] | log2 fold change [2] | log2 fold change [3] | log2 fold change [4] | log2 fold change [5] | log2 fold change [6] | log2 fold change [7] | log2 fold change [8] | log2 fold change [9] | log2 fold change [10]
RYR1 (UniProt P21817) | inactive: -0.032 | inactive: -0.061 | active: -0.392 | inactive: 0.046 | inactive: 0.029 | inactive: 0.003 |  |  |  | 
RTL8A (UniProt Q9BWD3) |  |  | inactive: 0.022 | inactive: 0.042 |  |  |  |  |  | 
S100A16 (UniProt Q96FQ6) |  |  | inactive: 0 | inactive: 0.136 | inactive: 0.219 |  | inactive: 0.148 | inactive: 0.05 | inactive: -0.154 | inactive: -0.514
RSRP1 (UniProt Q9BUV0) | inactive: 0.047 | inactive: 0.102 |  |  |  |  |  |  |  | 
RTL8C (UniProt A6ZKI3) | inactive: -0.067 | inactive: -0.06 | inactive: -0.01 | inactive: 0.061 |  | inactive: 0.076 | inactive: 0.01 | inactive: 0.018 | inactive: 0.042 | inactive: -0.015
RPS15, A0A0B4J2B4 |  |  |  |  | inactive: -0.187 |  | inactive: -0.228 | inactive: 0.078 | inactive: 0.098 | inactive: 0.124
RPP14 (UniProt O95059) |  |  | inactive: -0.113 | inactive: 0.087 | inactive: 0.01 | inactive: -0.102 | inactive: 0.061 | inactive: 0.046 | inactive: 0.045 | inactive: -0.104
RUFY3 isoform 2 (UniProt Q7L099) | inactive: 0.038 | inactive: -0.013 | inactive: -0.087 | inactive: 0.189 | inactive: 0.329 | inactive: -0.059 |  |  |  | 
RWDD2A (UniProt Q9UIY3) | inactive: -0.038 | inactive: 0.071 | inactive: 0.009 | inactive: 0.017 |  | inactive: 0.093 |  |  |  | 
RTL10 (UniProt Q7L3V2) | inactive: -0.027 | inactive: -0.022 | inactive: -0.056 | inactive: 0.065 |  | inactive: 0.024 | inactive: -0.003 | inactive: -0.216 | inactive: 0.038 | inactive: 0.026
RPS19BP1 (UniProt Q86WX3) |  |  | inactive: -0.147 | inactive: -0.042 | inactive: 0.038 |  |  |  |  | 
RRP7A (UniProt Q9Y3A4) | inactive: -0.094 | inactive: -0.054 | inactive: 0.064 | inactive: 0.089 | inactive: -0.054 | inactive: 0.007 |  |  |  | 
RPS29 (UniProt P62273) | inactive: 0.22 | inactive: 0.112 | inactive: 0.361 | inactive: -0.116 | inactive: -0.024 | inactive: -0.068 | inactive: 0.117 | inactive: 0.072 | inactive: 0.061 | inactive: 0.094
RWDD3 (UniProt Q9Y3V2) | inactive: -0.067 | inactive: 0.159 | inactive: -0.006 | inactive: -0.018 |  |  |  |  |  | 
RPSA (UniProt F8WD59) | inactive: 0.029 | inactive: 0.167 |  |  |  |  | inactive: -0.109 | inactive: 0.011 | inactive: -0.032 | inactive: 0.142
RRBP1 isoform 3 (UniProt Q9P2E9) | inactive: -0.059 | inactive: -0.069 | inactive: 0.054 | inactive: 0.158 |  | inactive: 0.048 |  |  |  | 
RUFY2 isoform 1 (UniProt Q8WXA3) |  |  | inactive: 0.047 | inactive: 0.007 |  |  | inactive: -0.006 | inactive: 0.02 | inactive: 0.119 | inactive: 0.177
RPS5 (UniProt P46782) | inactive: -0.03 | inactive: -0.012 | inactive: 0.067 | inactive: 0.013 | inactive: -0.049 | inactive: 0.009 | inactive: 0.01 | inactive: 0.002 | inactive: -0.002 | inactive: 0.038
RPS7, A0A2R8Y623 | inactive: 0.077 | inactive: -0.231 |  |  | inactive: 0.33 | inactive: 0.061 |  |  |  | 
S100A6 (UniProt P06703) | active: 0.774 | inactive: -0.063 | inactive: 0.001 | inactive: -0.078 | inactive: -0.063 | inactive: 0.026 |  |  |  | 

A different layout for some results above.
Target,log2 fold change [1],log2 fold change [2],log2 fold change [3],log2 fold change [4],log2 fold change [5],log2 fold change [6],log2 fold change [7],log2 fold change [8],log2 fold change [9],log2 fold change [10]
RYR1 (UniProt P21817),inactive: -0.032,inactive: -0.061,active: -0.392,inactive: 0.046,inactive: 0.029,inactive: 0.003,,,,
RSRP1 (UniProt Q9BUV0),inactive: 0.047,inactive: 0.102,,,,,,,,
RTL8C (UniProt A6ZKI3),inactive: -0.067,inactive: -0.06,inactive: -0.01,inactive: 0.061,,inactive: 0.076,inactive: 0.01,inactive: 0.018,inactive: 0.042,inactive: -0.015
RUFY3 isoform 2 (UniProt Q7L099),inactive: 0.038,inactive: -0.013,inactive: -0.087,inactive: 0.189,inactive: 0.329,inactive: -0.059,,,,
RTL10 (UniProt Q7L3V2),inactive: -0.027,inactive: -0.022,inactive: -0.056,inactive: 0.065,,inactive: 0.024,inactive: -0.003,inactive: -0.216,inactive: 0.038,inactive: 0.026
RPSA (UniProt F8WD59),inactive: 0.029,inactive: 0.167,,,,,inactive: -0.109,inactive: 0.011,inactive: -0.032,inactive: 0.142
RRBP1 isoform 3 (UniProt Q9P2E9),inactive: -0.059,inactive: -0.069,inactive: 0.054,inactive: 0.158,,inactive: 0.048,,,,
RUFY2 isoform 1 (UniProt Q8WXA3),,,inactive: 0.047,inactive: 0.007,,,inactive: -0.006,inactive: 0.02,inactive: 0.119,inactive: 0.177
RPS5 (UniProt P46782),inactive: -0.03,inactive: -0.012,inactive: 0.067,inactive: 0.013,inactive: -0.049,inactive: 0.009,inactive: 0.01,inactive: 0.002,inactive: -0.002,inactive: 0.038
"RPS7, A0A2R8Y623",inactive: 0.077,inactive: -0.231,,,inactive: 0.33,inactive: 0.061,,,,

Additional records:

Target | log2 fold change [1] | log2 fold change [2] | log2 fold change [3] | log2 fold change [4] | log2 fold change [5] | log2 fold change [6] | log2 fold change [7] | log2 fold change [8] | log2 fold change [9] | log2 fold change [10]
RPUSD4 (UniProt Q96CM3) | inactive: 0.046 | inactive: 0 | inactive: -0.006 | inactive: 0.058 |  | inactive: -0.021 | inactive: -0.026 | inactive: -0.02 | inactive: 0.001 | inactive: -0.045
S100A7A (UniProt Q86SG5) |  |  | inactive: 0.322 | inactive: -0.538 |  | inactive: 0.13 |  |  |  | 
RUNDC1 (UniProt Q96C34) | inactive: -0.022 | inactive: -0.068 | inactive: -0.049 | inactive: 0.029 |  | inactive: -0.014 |  |  |  | 
RPL6 (UniProt Q02878) | inactive: -0.02 | inactive: 0.007 | inactive: 0.013 | inactive: 0.004 | inactive: -0.013 | inactive: 0.021 | inactive: 0.025 | inactive: -0.026 | inactive: 0.006 | inactive: 0.02
RTTN (UniProt Q86VV8) | inactive: -0.086 | inactive: -0.161 |  |  | inactive: -0.282 | inactive: 0.216 | inactive: -0.102 | inactive: 0.14 | inactive: -0.003 | inactive: -0.069
RPUSD1 (UniProt Q9UJJ7) | inactive: -0.186 | inactive: -0.097 |  |  |  |  |  |  |  | 
RSF1 (UniProt Q96T23) | inactive: -0.128 | inactive: 0.07 | inactive: 0 | inactive: -0.001 | inactive: -0.028 | inactive: -0.169 |  |  |  | 
RRP36 (UniProt Q96EU6) | inactive: 0.06 | inactive: -0.01 | inactive: -0.068 | inactive: -0.112 | inactive: 0.106 | inactive: -0.046 |  |  |  | 
RPS3 (UniProt E9PJN9) |  |  | inactive: -0.026 | inactive: 0 |  |  |  |  |  | 
S100A2 (UniProt P29034) |  |  | inactive: -0.658 | inactive: -0.055 | inactive: 0.069 | inactive: -0.184 | inactive: 0.186 | inactive: -0.215 | inactive: -0.049 | inactive: -0.273
RXYLT1 (UniProt Q9Y2B1) | inactive: -0.128 | inactive: 0.039 |  |  | inactive: 0.18 | inactive: -0.116 | inactive: 0.126 | inactive: 0.03 | inactive: 0.031 | inactive: -0.167
RTN4R (UniProt Q9BZR6) |  |  |  |  |  | inactive: 0.105 |  |  |  | 
S100A10 (UniProt P60903) | inactive: 0.896 | inactive: -0.178 | inactive: -0.312 | inactive: 0.159 |  | inactive: 0.175 | inactive: 0.051 | inactive: 0.038 | inactive: -0.019 | inactive: -0.027
RPUSD3 (UniProt Q6P087) | inactive: 0.041 | inactive: 0.008 | inactive: -0.123 | inactive: -0.037 |  | inactive: 0.077 | inactive: 0.009 | inactive: 0.025 | inactive: -0.033 | inactive: -0.028
S100A14 (UniProt Q9HCY8) | inactive: 0.357 | inactive: -0.089 |  |  | inactive: 0.331 | inactive: 0.165 |  |  |  | 
RTEL1 isoform 2 (UniProt Q9NZ71) | inactive: 0.014 | inactive: 0.013 |  |  |  |  | inactive: 0.041 | inactive: -0.112 | inactive: -0.162 | inactive: -0.265
RPS19 (UniProt M0R2L9) | inactive: -0.077 | inactive: -0.928 | inactive: 0.01 | inactive: -0.07 |  | inactive: -0.438 |  |  |  | 
RSAD1 (UniProt Q9HA92) | inactive: 0.203 | inactive: -0.187 | inactive: 0.074 | inactive: -0.071 | inactive: 0.076 | inactive: -0.146 |  |  |  | 
RPS15 (UniProt P62841) | inactive: 0.007 | inactive: -0.038 | inactive: -0.097 | inactive: 0.013 | inactive: -0.004 | inactive: 0.002 | inactive: 0.011 | inactive: -0.011 | inactive: -0.053 | inactive: 0.008
RUSC2 (UniProt Q8N2Y8) | inactive: -0.063 | inactive: 0.055 |  |  |  | inactive: -0.019 | inactive: -0.131 | inactive: -0.076 | inactive: 0.161 | inactive: 0.041
